Experimental data reported in PubChem BioAssay AID1688 (National Center for Advancing Translational Sciences (NCATS), 2009).
Out of some 220,000 compounds screened, about 2,400 (1.1%) were called active. The inconclusive results got no clear call from the source; some entries with a clear call stand among them for comparison. Calls come from the whole dose curve; as a rule, active = well fitted inhibition curve with a large enough effect; inconclusive = small, poorly fitted or top-dose-only effect, or effect the other way; inactive = no such curve, though single readings can be large or run the other way. A potency beside an inconclusive call is a rough fit, not a confirmed value.

Assay: qHTS Multiplex Assay to Identify Dual Action Probes in a Cell Model of Huntington: Aggregate Formation (GFP); note: nearly all actives have a fitted effect of over 60% in size
Conditions: PC12 HttQ103-GFP aggregates, Acumen cytometry, 40 h; activity change, negative = inhibition: at 46.1 µM (top of the series) unless noted
Summary of the method: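 Read-out: GFP aggregate count by laser scanning cytometer (488 nm excitation, 500-530 nm emission, 1–25 µm objects >6 SD above background). Cells: PC12, inducible HTTex1-Q103-GFP, 100 nM tebufenozide; compounds titrated.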
% is set by controls: 0 for no effect and ±100 for the full control effect; potency is the fitted concentration of half-maximal effect.

Compound | Potency | activity change, negative = inhibition
CC1C(c2ccccc2)N(C)C(c2ccccc2)CC1(O)c1ccccc1 (configuration not stated) | inconclusive: 11.2 µM [inhibitor, partial curve] | 
COc1ccc(-n2nnnc2SCC(=O)NCCc2ccccc2)cc1OC | inactive | 
Clc1ccc(-c2nc(N3CCCCC3)nc3ccccc23)cc1 | inactive | 
Cc1oc2c(c1C(=O)O)C(=O)c1ccccc1C2=O | inconclusive: 22.4 µM [inhibitor, single point] | 
OCCCc1ccc(O)c(O)c1 |  | inactive: 5.64% [at 9.22 µM]
CCc1ccc(N=CC2=C(O)CC(c3ccco3)CC2=O)cc1 (configuration not stated) | inconclusive: 31.6 µM [activator, single point] | 
Cc1ccc(S(=O)(=O)C(C#N)c2nc3ccccc3nc2N2CCCC2)cc1 (configuration not stated) | inactive | 
CCN(CC)S(=O)(=O)c1ccc(C(=O)N2CCN(CCN3C(=O)c4cccc5cccc(c45)C3=O)CC2)cc1 | inconclusive: 1.58 µM [activator, full curve] | 
CCC(=O)N1CCc2cc(S(=O)(=O)NCCCN3CCN(Cc4ccccc4)CC3)ccc21 | inactive | 
CCCn1c(SCC(=O)N2N=C3/C(=C/c4ccc(OC)cc4)CCCC3C2c2ccc(OC)cc2)n[nH]c1=O (configuration not stated) | inconclusive: 25.1 µM [inhibitor, single point] | 
COc1cc(S(=O)(=O)N2CCN(Cc3ccc4c(c3)OCO4)CC2)c(C)cc1C | inconclusive: 12.6 µM [inhibitor, single point] | 
COC(=O)c1cc(C)[nH]c2c(C)cc3nc4ccccc4c3c12 |  | inactive: 2.09% [at 9.22 µM]
CC1(OC(=O)C2CCCC2)C(=O)C=C2C=C(c3ccsc3)N(CCCCO)C=C2C1=O (configuration not stated) | inconclusive: 3.55 µM [inhibitor, partial curve] | 
C=CCN=c1scc(-c2ccc3c(c2)NC(=O)CO3)n1/N=C(\C)c1ccccn1 | active: 5.01 µM | 
COC(=O)c1ccc(NC(=O)Cn2nnc3ccccc32)cc1 | inconclusive: 1.26 µM [activator, partial curve] | 
CC(=O)c1cc2c(cc1N/C(=N/S(=O)(=O)c1ccc(Br)cc1)c1ccccc1)OCO2 | inactive | 
Cc1[nH]c2ccccc2c1C(c1ccccn1)c1c(C)[nH]c2ccccc12 | inactive | 
CC(C)c1ccc(Nc2c([N+](=O)[O-])c(=O)n(C)c3ccccc23)cc1 |  | inactive: 3.97% [at 9.22 µM]
Cc1ccc2nc(C)cc(Nc3ccc([N+](=O)[O-])cc3)c2c1 | inconclusive: 35.5 µM [inhibitor, single point] | 
Cc1ccc(-c2nc(C3CCCN(S(=O)(=O)c4ccc(C)cc4)C3)no2)cc1 (configuration not stated) | inconclusive: 12.6 µM [inhibitor, partial curve] | 
COc1cc2cc(CN(Cc3cccs3)C(=S)Nc3ccc(C)cc3)c(=O)[nH]c2cc1OC | inactive | 
Cc1ccccc1NC(=O)NC1CCCCC1C (configuration not stated) |  | inactive: 6.08% [at 9.22 µM]
COc1cc(OC)c(C(=O)OC(C)C(=O)Nc2cccc(C(F)(F)F)c2)cc1OC (configuration not stated) | inactive | 
COc1ccc(CC(=O)NC(CC(=O)O)c2ccc(OC)cc2)cc1 (configuration not stated) | inconclusive: 8.91 µM [activator, partial curve] | 

Compound | Potency | activity change, negative = inhibition
Cc1ccc2c(c1)sc(C)[n+]2CCCS(=O)(=O)[O-] | inactive | 
COc1ccc(C(=O)/C=C/c2ccc(OC)c(O)c2)c(F)c1 | inactive | 
O=[N+]([O-])c1cccc(/C=N/NS(=O)(=O)c2ccccc2)c1 | inactive | 
CC[C@]1(O)C[C@H]2CN(CCc3c([nH]c4ccccc34)[C@@](C(=O)OC)(c3cc4c(cc3OC)N(C=O)[C@H]3[C@@](O)(C(=O)OC)[C@H](OC(C)=O)[C@]5(CC)C=CCN6CC[C@]43[C@@H]65)C2)C1 | inconclusive: 0.0178 µM [inhibitor, full curve, poor fit] | 
Cc1nn(CC(=O)NCc2cccnc2)c(C)c1[N+](=O)[O-] | inactive | 
Cc1ccccc1C(=O)NC(=S)Nc1ccc(S(=O)(=O)N(C)c2ccccc2)cc1 | inconclusive: 35.5 µM [inhibitor, single point] | 
Cn1c(=O)n(C/C=C/c2ccccc2)c(=O)c2c1nc1n2CCCN1Cc1ccccc1 | inconclusive: 35.5 µM [inhibitor, single point] | 
CCCn1c(SCC(=O)c2ccc(CC)cc2)n[nH]c1=O | active: 0.891 µM | 
C=CCNC(=O)C1CCN(c2ccc(S(=O)(=O)N3CCOCC3)cc2[N+](=O)[O-])CC1 | inconclusive: 3.98 µM [activator, partial curve] | 
CCN(CC)CCNC(=O)c1cccc(NC(=O)C(=O)c2ccccc2NC(C)=O)c1 | inactive | 
CC(=O)Nc1sc(/C(C#N)=C/c2ccc(Cl)c(Cl)c2)nc1-c1ccc(C)cc1 | inconclusive: 2.82 µM [inhibitor, partial curve] | 
O=C(CSc1ncccn1)NC(=O)NCc1ccco1 | inactive | 
COCCCNCC(O)COc1ccccc1F (configuration not stated) | inactive | 
C/C(=N/Nc1ccc([N+](=O)[O-])cc1)c1ccc(C)cc1C | inconclusive: 35.5 µM [inhibitor, single point] | 
O=C1c2ccccc2C(Nc2cccc(C(F)(F)F)c2)N1Cc1ccco1 (configuration not stated) | inconclusive: 22.4 µM [inhibitor, single point] | 
CCc1nc(NCc2ccc3c(c2)OCO3)c2oc3ccccc3c2n1 | inconclusive: 8.91 µM [inhibitor, partial curve] | 
CC(=O)N1/C(=C/c2ccc(N(C)C)cc2)C(=O)c2ccccc21 | inconclusive: 35.5 µM [activator, single point] | 
Cc1cccc(NC(=O)Cn2cnc3c(oc4ccccc43)c2=O)c1 | inactive | 
Cc1ccc(Sc2ccc(/C=C3/C(=O)NN(c4ccccc4)C3=O)o2)cc1 |  | inactive: -14.1% [at 9.22 µM]
COc1cccc(-c2csc(NC3OC(=O)c4c3ccc(OC)c4OC)n2)c1 (configuration not stated) |  | inactive: 3.14% [at 9.22 µM]
Cc1ccc(C)c(-n2cc(-c3ccc(Cl)cc3)nc2SCC(=O)NC2CCS(=O)(=O)C2)c1 (configuration not stated) | inconclusive: 3.16 µM [inhibitor, partial curve] | 
Cn1ncc(Cl)c1C(=O)Nc1ccncc1 | inconclusive: 35.5 µM [inhibitor, single point] | 
CCOC(=O)/C(C#N)=C1\Nc2ccccc2N=C1N(CC(C)C)CC(C)C | inconclusive: 20 µM [inhibitor, single point] | 
Cc1ccc2nc(C)c(C(=O)NN=C3CCN(C)CC3)n2c1 | inconclusive: 35.5 µM [inhibitor, single point] | 

Compound | Potency | activity change, negative = inhibition
Nc1c(C(=O)NC2CC2)c2nc3ccccc3nc2n1-c1ccc2c(c1)OCO2 | inconclusive: 10 µM [inhibitor, partial curve] | 
O=C1C2C3C=CC(C3)C2C(=O)N1c1n[nH]c(-c2cccnc2)n1 (configuration not stated) | inconclusive: 0.158 µM [inhibitor, full curve, poor fit] | 
O=C(c1cnn(C(=O)c2ccc(O)cc2)c1)c1ccccc1O | inactive | 
O=[N+]([O-])c1ccc(N2CCN(C(=S)Nc3cccc(F)c3)CC2)cc1 | inconclusive: 14.1 µM [inhibitor, single point] | 
CC(C)C1OC2c3cccc4cccc(c34)C2N1c1ccccc1 (configuration not stated) | inactive | 
CCCN(CCC)S(=O)(=O)c1ccc(C(=O)Nc2nnc(COC)o2)cc1 | inconclusive: 20 µM [inhibitor, single point] | 
COc1ccc(OC)c(NC(=O)CNC(=O)Cn2cnc3ccccc3c2=O)c1 | inactive | 
Oc1c(Cl)cc(Cl)c(Cl)c1Cc1c(O)c(Cl)cc(Cl)c1Cl | active: 5.62 µM | 
CCOC(=O)N1CCN(S(=O)(=O)c2ccc3[nH]c(=O)sc3c2)CC1 | inconclusive: 3.55 µM [activator, single point] | 
O=C1C2C3C=CC(C4CC34)C2C(=O)N1/N=C/c1ccc(-c2cccc([N+](=O)[O-])c2)o1 (configuration not stated) | inconclusive: 8.91 µM [inhibitor, partial curve] | 
N#Cc1ccc(C23CC4(C2)[C@H](CN(Cc2ccc(C(F)(F)F)cc2)[C@@H]4c2ccccc2)C3c2ccccc2)cc1 (some centres not stated) | inconclusive: 1.26 µM [inhibitor, single point] | 
Cc1cccc(NC(c2ccc(O)cc2)c2ccc3ccc(C)nc3c2O)n1 (configuration not stated) | inactive | 
NNC(=O)c1ccc(CSc2cccc3cccnc23)cc1 | inactive | 
CC(C)C(c1nnnn1C(C)(C)C)N1CCN(c2cccc(Cl)c2)CC1 (configuration not stated) | inconclusive: 25.1 µM [inhibitor, partial curve] | 
O=C(c1ccc(F)cc1)N1CCN(c2ccc([N+](=O)[O-])cc2-n2cccc2)CC1 | inconclusive: 2 µM [activator, partial curve] | 
C=CCNC(=O)c1ccccc1NC(=O)c1ccccc1C | inactive | 
Cc1cnc(C(=O)OCC(=O)N2CCN(C(=O)c3ccco3)CC2)cn1 | inconclusive: 6.31 µM [activator, single point] | 
Oc1ccc(Br)cc1-c1cc(-c2ccco2)[nH]n1 | inconclusive: 11.2 µM [activator, single point] | 
CCc1c(C)nc2ncnn2c1Nc1ccc(C#N)c(Cl)c1 | active: 12.6 µM | 
Cc1ccc(C)c(N2C(=O)CC(N3CCN(Cc4ccc5c(c4)OCO5)CC3)C2=O)c1 (configuration not stated) | inactive | 
Cc1c(C(=O)NC(C)C)oc2c1-c1[nH]ncc1CC2 | inactive | 
CCCC(=O)Nc1ccccc1-c1nnn(CC(=O)Nc2ccc(OC)cc2)n1 | inactive | 
CC(=O)Nc1ccc(NC(=O)COC(=O)c2c3c(nc4ccccc24)CCN(Cc2ccccc2)C3)cc1 | active: 3.98 µM | 
O=C(c1cc(NC(=O)C23CC4CC(CC(C4)C2)C3)cc(NC(=O)C23CC4CC(CC(C4)C2)C3)c1)N1CCCCC1 | inconclusive: 0.794 µM [inhibitor, full curve] | 
